The star is where a group is joined. Cbz = O=C(OCc1ccccc1)*; Boc = CC(C)(C)OC(=O)*
Assay: general procedure: solution-phase peptide synthesis; EDC-HCl/HOBt; DCC/HOBt; DCC/HOSu for active esters

Substance	step yield (late stage modification step)	step yield (coupling step)
Boc-Gly^1-Lys(Z)^2-Gly^3-Val^4-Ala^5-Pro^6-OSu (SEQ ID NO: 8)	80%	–
Boc-(Gly^1-Val^2-Gly^3-Hmb^4-Ala^5-Pro^6)5-OBzl	–	67%
Boc-Gly-Thr-Gly-Hmb-Pro-OH	86%	–
Boc-Gly^1-Val^2-Gly^3-Hmb^4-Ala^5-Pro^6-OBzl	–	40%
Boc-Gly-Hmb-Ala-Pro-OBzl	–	54.9%
Boc-(Gly^1-Val^2-Gly^3-Hmb^4-Ala^5-Pro^6)4-OBzl	–	77%
Boc-Gly-Val-Gly-Hmb-Pro-OSu	89%	–
Boc-Thr-Gly-Hmb-Pro-OBzl	–	38%
Boc-Gly^1-Ile^2-Gly^3-Hmb^4-Pro^5-OBzl	–	58.1%
Boc-Gly^1-Lys(Z)^2-Gly^3-Val^4-Ala^5-Pro^6-OMe (SEQ ID NO: 5)	–	65%
Boc-Gly-Thr-Gly-Hmb-Pro-OBzl	–	75%
Boc-(Gly1-Val^2-Gly^3-Hmb^4-Ala^5-Pro^6)6-OBzl	–	33%
Boc-Gly^1-Val^2-Gly^3-Hmb^4-Ala^5-Pro^6-OSu	80%	–
Boc-(Gly1-Val^2-Gly^3-Hmb^4-Ala^5-Pro^6 )2-OBzl	–	75.8%
Boc-Gly-Ile-Gly-Hmb-Pro-OSu	79.9%	–
TFA·H-Gly^1-Val^2-Gly^3-Hmb^4-Ala^5-Pro^6-OSu	89%	–
Boc-Val-Gly-Hmb-Pro-OBzl	–	93%
Boc-Gly-Val-Gly-Hmb-Pro-OH	86%	–
Boc-Gly^1-Lys(Z)^2-Gly^3-Val^4-Ala^5-Pro^6-OH (SEQ ID NO: 7)	84%	–
Boc-Val-Gly-Hmb-Ala-Pro-OBzl	–	77.1%
Boc-(Gly^1-Val^2-Gly^3-Hmb^4-Ala^5-Pro^6 )3-OBzl	–	80%
Boc-Ile-Gly-Hmb-Pro-OBzl	–	92.0%
Boc-K(Cbz)GVAP-OMe (SEQ ID NO: 3)	–	65%
Boc-Gly-Val-Gly-Hmb-Pro-OBzl	–	34%
Boc-Gly^1-Val^2-Gly^3-Hmb^4-Ala^5-Pro^6-OH	93%	–

Reference: patent US20090275730A1 (priority 2004, published 2009)
